The whole screen tested about 320,000 compounds, of which about 200 (0.062%) were called active. Roughly 6% stayed inconclusive and do not appear here. Calls come from the whole dose curve; as a rule, active = well fitted activation curve with a large enough effect; inconclusive = small, poorly fitted or top-dose-only effect; inactive = no such curve, though single readings can be large or run the other way. This is a selection; strong and weak results do not stand in their true shares. The source gives no active or inactive call for entries shown without one.
Potency is the fitted concentration of half-maximal effect.

This test is described as follows: qHTS assay for re-activators of p53 using a Luc reporter. For activity change, positive = activation: % of control where 0% means no effect. Note: nearly all actives have a fitted effect of over 45% in size. Conditions: H1299 p53-A138V BP100-luciferase reporter, luminescence, 24 h; activity change, positive = activation: at 92.2 µM (top of the series). The method in brief: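 p53-null H1299 cells stably carrying temperature-sensitive p53-A138V and a BP100-luciferase reporter were pinned with compounds (4-point, 1:5 series) and held 24 hrs at 37 deg C. Luminescence was read 10 min after detection reagent.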
`CC(=O)/C=C/n1c(=S)oc2ccccc21`: the “activity change, positive = activation” value was inactive: -26.3%.

Take `Cc1ccccc1NC(=O)/C=C/c1ccc([N+](=O)[O-])s1`: the “activity change, positive = activation” value is inactive: -35.4%.

For the compound `Nc1c(C(=O)Nc2cccc(F)c2)nnn1-c1ccc2c(c1)OCCO2`, the activity change, positive = activation came to 47.8%.

Consider `O=C(NNC(=O)c1ccc(Cl)cc1Cl)c1ccncc1`, for which the activity change, positive = activation was 66.8%.

Take `CC(C)Cc1nnc(NC(=O)c2ccc3c(c2)OCCO3)s1`: the activity change, positive = activation came out at 49.2%.

On to `CCN(CC)c1ccc(/C=C(\C#N)c2ccccn2)cc1`, for which the activity change, positive = activation was found to be 32.3%.

For `Cc1cc(NC(=O)c2ccc3c(c2)OCCO3)no1`, the activity change, positive = activation was -26.3%.

Take `Cc1ccc(NC(=O)N2CCc3ccccc32)cc1`: the activity change, positive = activation worked out at 100%.

As to `O=C(CN1CCN(c2ccc(Cl)cc2)CC1)Nc1ccc(F)cc1`, the “activity change, positive = activation” value was inactive: 2.08%.

As to `O=C1CSC(c2ccccc2)N1Cc1ccccn1` (stereo unspecified), the activity change, positive = activation came to 22.7%.

With `CC(=O)Nc1ccc(N=Nc2ccccc2)cc1`, the activity change, positive = activation amounted to 33.1%.

As for `O=C(Nc1ccc(/C=C/c2nc3ccccc3o2)cc1)c1c(F)cccc1F`, the activity change, positive = activation was 52.9%.

As to `Cc1cccc(-c2nnc(-c3ccccc3)o2)c1`, the Potency is active: 11.2 µM.

On to `Nc1nc2c(-c3ccc(Br)cc3)nnn2c2ccccc12`, for which the activity change, positive = activation amounted to 37.9%.

Regarding `COC(=O)c1ccc(Sc2nnnn2-c2ccccc2)c([N+](=O)[O-])c1`, the “activity change, positive = activation” value is inactive: -38.9%.

For the compound `COc1cc(OC)c(C(=O)Nc2ccc(C(=O)c3ccccc3)cc2)cc1OC`, the “activity change, positive = activation” value was inactive: -45.1%.

Regarding `O=C(CSc1nc(-c2ccccc2)cs1)Nc1cccc([N+](=O)[O-])c1`, the Potency was active: 35.5 µM.

Take `Cc1ccnc(NC(=S)NC(=O)c2cccs2)c1`: the activity change, positive = activation was 129%.

As to `O=C(COc1ccccc1Cl)Nc1ccc(Cl)cn1`, the activity change, positive = activation is 44.8%.

On to `COc1cc(C(=O)OC(C)CN2CCCC2)cc(OC)c1OC` (stereo unspecified), for which the activity change, positive = activation turned out to be 33.4%.

On to `Cc1ccccc1CSc1ccc(-c2ccc3c(c2)OCO3)nn1`, for which the activity change, positive = activation was 58%.

Consider `O=C(N/N=C1\CCc2ccccc21)c1ccccc1O`, for which the activity change, positive = activation was determined as 166%.

Consider `COCCn1c(C)cc(C(=O)CSc2nc3ccccc3c(=O)[nH]2)c1C`, for which the activity change, positive = activation came out at 31%.

Consider `COC(=O)CNc1c(-c2ccccn2)nc2ccc(Br)cn12`, for which the activity change, positive = activation was 36.7%.

With `O=C(COc1ccccc1F)Nc1ccc2c(c1)OCCO2`, the activity change, positive = activation amounted to 29.4%.

For the compound `COc1ccc(C(=O)O/N=C(\N)c2ccccc2)c(OC)c1`, the activity change, positive = activation stood at 50.8%.

Turning to `O=C1C=C(c2ccc3ncccc3c2)C[C@@H](c2ccc(F)cc2)C1`, the “activity change, positive = activation” value was inactive: -40%.

`O=C(/C=C/c1ccccc1)NCCC1=CCCCC1`: the activity change, positive = activation amounted to 84.7%.

For `O=C(/C=C/c1ccccc1Cl)Nc1cccnc1`, the activity change, positive = activation came out at 41.4%.

As for `COc1ccc(-c2ccc(-c3nnn(CC(=O)N4CCOCC4)n3)cc2)cc1`, the activity change, positive = activation was determined as 41.7%.

With `Cc1ccccc1-c1nc2cc(NC(=O)C3CC3)ccc2o1`, the activity change, positive = activation was found to be 37%.

`Cc1cccn2cc(-c3ccc(F)cc3)nc12`: the activity change, positive = activation was 72.6%.

With `Cc1ccc(OCC(=O)c2cc(C)n(C3CC3)c2C)c([N+](=O)[O-])n1`, the activity change, positive = activation came out at 234%.

`Cc1ccc(C(=O)NC(=S)Nc2cccnc2Cl)cc1`: the activity change, positive = activation was 55.5%.

In the case of `Cc1ccc(S(=O)(=O)N(C)C)cc1NC(=O)COC(=O)CCC(=O)c1ccc(F)cc1`, the activity change, positive = activation is 50%.

Regarding `O=C(NCc1cccnc1)/C(=C\c1ccc(-c2ccc(Br)cc2)o1)S(=O)(=O)c1ccccc1`, the “activity change, positive = activation” value is inactive: -39.1%.

For `Cc1ccccc1NC(=O)CSc1nc2ccccc2c(=O)n1C`, the “activity change, positive = activation” value was inactive: -52.9%.

Turning to `COc1ccccc1C(=O)CSc1nccn1C`, the activity change, positive = activation was found to be 31.7%.

With `CC(C)Nc1ncnc2c1cnn2-c1ccccc1`, the activity change, positive = activation is 65.6%.

In the case of `CCc1cc(C(=O)c2ccc(C)cc2)c(NC(=O)CCl)s1`, the activity change, positive = activation was -23.2%.

With `C=CC[C@@H](CC(=O)N(CCO)Cc1ccccc1)C(=O)N[C@H](COC(=O)[C@@H](CC=C)CC(=O)OC(C)(C)C)Cc1c[nH]c2ccccc12`, the “activity change, positive = activation” value is inactive: 1.74%.

Regarding `Cc1c(Cl)c([N+](=O)[O-])nn1CCCC(=O)Nc1sc2c(c1C(N)=O)CCC(C)C2` (stereo unspecified), the activity change, positive = activation came out at 41.8%.

Consider `O=C(NNC(=O)c1cc2ccccc2oc1=O)c1ccccc1`, for which the activity change, positive = activation amounted to 34.2%.

For the compound `CC(=O)Nc1ccc(/C=C/c2noc(-c3ccccc3O)n2)cc1`, the activity change, positive = activation came out at 32%.

For `CCN(CC)c1ccc2nc3ccccc3[n+](CC)c2c1`, the “activity change, positive = activation” value is inactive: -93.7%.

Consider `CC[C@]12c3[nH]c4cc(-c5ccco5)ccc4c3CCN1C(=O)[C@@H](CC(=O)NC/C=C(\C)CCC=C(C)C)C[C@@H]2C(=O)N1CCN(C(=O)C2CC2)CC1`, for which the activity change, positive = activation was 30.4%.

Take `Clc1ccc(OCc2nc(-c3ccccn3)no2)c(Br)c1`: the activity change, positive = activation came out at 61.5%.

As to `Cc1csc2ncc(C(=O)Nc3ccc4c(c3)OCCO4)c(=O)n12`, the activity change, positive = activation was 33.7%.

`COc1ccc(OC)c(C2C(C#N)=C(N)N(N(C)C)C3=C2C(=O)CCC3)c1` (stereo unspecified): the activity change, positive = activation turned out to be 47.5%.

`COc1ccc(NC(=O)Nc2ccc3nccnc3c2)cc1`: the activity change, positive = activation came to 54.6%.

As for `O=C(N/N=C/c1cn(-c2ccccc2)nc1-c1cc2ccccc2o1)c1ccccc1Br`, the activity change, positive = activation was found to be 69%.

On to `Fc1ccc(-c2csc(/C=C/c3ccc4c(c3)OCO4)n2)cc1`, for which the activity change, positive = activation is 73.7%.

`O=C(CCN1C(=O)NC2(CCCC2)C1=O)Nc1ccc(-c2nc3ccccc3s2)cc1`: the activity change, positive = activation was 51.6%.

Take `CC(=O)c1ccc(N2CCN(C(=O)c3ccco3)CC2)c(F)c1`: the activity change, positive = activation came to 35.8%.

In the case of `NNC(=O)c1cccc(COc2ccc(Br)cc2)c1`, the activity change, positive = activation worked out at 134%.

Consider `Cc1nc2cc(NC(=O)N3c4ccccc4CC3C)ccc2n1C` (stereo unspecified), for which the activity change, positive = activation turned out to be 61%.

Source of the values: PubChem BioAssay AID504706 (National Center for Advancing Translational Sciences (NCATS), 2011).
